# Experimental data as given in publication PMC8384837.
# Residue numbers refer to the chain shown, from its start. This is one part of the list. For part of these data: At the low end of the ranking the order means little.
# What was measured:
# Details in all cases: yeast three-hybrid, YBZ-1, SC-Leu-His + 0.5 mM 3-AT, 4 days
# [1] = target: T1, PUM1 PUF domain R5-AAD C1007A + R1008A + Q1011D (UniProt Q14671)
# T1 sequence: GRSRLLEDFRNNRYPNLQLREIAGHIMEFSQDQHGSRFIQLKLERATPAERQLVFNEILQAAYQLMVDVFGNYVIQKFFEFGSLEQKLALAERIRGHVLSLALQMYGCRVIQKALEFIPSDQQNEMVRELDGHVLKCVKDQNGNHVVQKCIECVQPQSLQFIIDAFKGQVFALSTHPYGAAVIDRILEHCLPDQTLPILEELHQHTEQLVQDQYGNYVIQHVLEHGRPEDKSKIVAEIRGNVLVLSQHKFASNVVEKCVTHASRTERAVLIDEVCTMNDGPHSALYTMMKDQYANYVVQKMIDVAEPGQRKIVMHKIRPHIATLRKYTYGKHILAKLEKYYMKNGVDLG
# [2] = target: T2, PUM1 PUF domain R5-AFF C1007A + R1008F + Q1011F (UniProt Q14671)
# T2 sequence: T1 sequence with A181F, D184F
# [3] = target: T3, PUM1 PUF domain R5-AFY C1007A + R1008F + Q1011Y (UniProt Q14671)
# T3 sequence: T1 sequence with A181F, D184Y
# [4] = target: T4, PUM1 PUF domain R5-AGD C1007A + R1008G + Q1011D (UniProt Q14671)
# T4 sequence: T1 sequence with A181G
# [5] = target: T5, PUM1 PUF domain R5-AYF C1007A + R1008Y + Q1011F (UniProt Q14671)
# T5 sequence: T1 sequence with A181Y, D184F
# [6] = target: T6, PUM1 PUF domain R5-AYY C1007A + R1008Y + Q1011Y (UniProt Q14671)
# T6 sequence: T1 sequence with A181Y, D184Y
# [7] = target: T7, PUM1 PUF domain R5-DFL C1007D + R1008F + Q1011L (Homo sapiens) (UniProt Q14671)
# T7 sequence: T1 sequence with A180D, A181F, D184L
# [8] = target: T8, PUM1 PUF domain R5-DFP C1007D + R1008F + Q1011P (UniProt Q14671)
# T8 sequence: T1 sequence with A180D, A181F, D184P
# [9] = target: T9, PUM1 PUF domain R5-DGA C1007D + R1008G + Q1011A (UniProt Q14671)
# T9 sequence: T1 sequence with A180D, A181G, D184A
# [10] = target: T10, PUM1 PUF domain R5-DHG C1007D + R1008H + Q1011G (Homo sapiens) (UniProt Q14671)
# T10 sequence: T1 sequence with A180D, A181H, D184G
# [11] = target: T11, PUM1 PUF domain R5-DHW C1007D + R1008H + Q1011W (UniProt Q14671)
# T11 sequence: T1 sequence with A180D, A181H, D184W
# [12] = target: T12, PUM1 PUF domain R5-DQE C1007D + R1008Q + Q1011E (UniProt Q14671)
# T12 sequence: T1 sequence with A180D, A181Q, D184E
# [13] = target: T13, PUM1 PUF domain R5-DRD C1007D + Q1011D (Homo sapiens) (UniProt Q14671)
# T13 sequence: T1 sequence with A180D, A181R
# [14] = target: T14, PUM1 PUF domain R5-DRL C1007D + Q1011L (Homo sapiens) (UniProt Q14671)
# T14 sequence: T1 sequence with A180D, A181R, D184L
# [15] = target: T15, PUM1 PUF domain R5-DWW C1007D + R1008W + Q1011W (Homo sapiens) (UniProt Q14671)
# T15 sequence: T1 sequence with A180D, A181W, D184W
# [16] = target: T16, PUM1 PUF domain R5-DYF C1007D + R1008Y + Q1011F (UniProt Q14671)
# T16 sequence: T1 sequence with A180D, A181Y, D184F
# [17] = target: T17, PUM1 PUF domain R5-EAC C1007E + R1008A + Q1011C (Homo sapiens) (UniProt Q14671)
# T17 sequence: T1 sequence with A180E, D184C
# [18] = target: T18, PUM1 PUF domain R5-EAE C1007E + R1008A + Q1011E (UniProt Q14671)
# T18 sequence: T1 sequence with A180E, D184E
# [19] = target: T19, PUM1 PUF domain R5-EFD C1007E + R1008F + Q1011D (UniProt Q14671)
# T19 sequence: T1 sequence with A180E, A181F
# [20] = target: T20, PUM1 PUF domain R5-EGE C1007E + R1008G + Q1011E (UniProt Q14671)
# T20 sequence: T1 sequence with A180E, A181G, D184E
# [21] = target: T21, PUM1 PUF domain R5-ERK C1007E + Q1011K (Homo sapiens) (UniProt Q14671)
# T21 sequence: T1 sequence with A180E, A181R, D184K
# [22] = target: T22, PUM1 PUF domain R5-ESE C1007E + R1008S + Q1011E (Homo sapiens) (UniProt Q14671)
# T22 sequence: T1 sequence with A180E, A181S, D184E
# [23] = target: T23, PUM1 PUF domain R5-EVC C1007E + R1008V + Q1011C (Homo sapiens) (UniProt Q14671)
# T23 sequence: T1 sequence with A180E, A181V, D184C
# [24] = target: T24, PUM1 PUF domain R5-FFV C1007F + R1008F + Q1011V (UniProt Q14671)
# T24 sequence: T1 sequence with A180F, A181F, D184V
# [25] = target: T25, PUM1 PUF domain R5-FHI C1007F + R1008H + Q1011I (Homo sapiens) (UniProt Q14671)
# T25 sequence: T1 sequence with A180F, A181H, D184I
# [26] = target: T26, PUM1 PUF domain R5-FNG C1007F + R1008N + Q1011G (Homo sapiens) (UniProt Q14671)
# T26 sequence: T1 sequence with A180F, A181N, D184G
# [27] = target: T27, PUM1 PUF domain R5-FNS C1007F + R1008N + Q1011S (UniProt Q14671)
# T27 sequence: T1 sequence with A180F, A181N, D184S
# [28] = target: T28, PUM1 PUF domain R5-GFL C1007G + R1008F + Q1011L (UniProt Q14671)
# T28 sequence: T1 sequence with A180G, A181F, D184L
# [29] = target: T29, PUM1 PUF domain R5-GFY C1007G + R1008F + Q1011Y (UniProt Q14671)
# T29 sequence: T1 sequence with A180G, A181F, D184Y
# [30] = target: T30, PUM1 PUF domain R5-GGE C1007G + R1008G + Q1011E (UniProt Q14671)
# T30 sequence: T1 sequence with A180G, A181G, D184E
# [31] = target: T31, PUM1 PUF domain R5-GHA C1007G + R1008H + Q1011A (Homo sapiens) (UniProt Q14671)
# T31 sequence: T1 sequence with A180G, A181H, D184A
# [32] = target: T32, PUM1 PUF domain R5-GHL C1007G + R1008H + Q1011L (Homo sapiens) (UniProt Q14671)
# T32 sequence: T1 sequence with A180G, A181H, D184L
# [33] = target: T33, PUM1 PUF domain R5-GKH C1007G + R1008K + Q1011H (Homo sapiens) (UniProt Q14671)
# T33 sequence: T1 sequence with A180G, A181K, D184H
# [34] = target: T34, PUM1 PUF domain R5-GLW C1007G + R1008L + Q1011W (UniProt Q14671)
# T34 sequence: T1 sequence with A180G, A181L, D184W
# [35] = target: T35, PUM1 PUF domain R5-GNW C1007G + R1008N + Q1011W (UniProt Q14671)
# T35 sequence: T1 sequence with A180G, A181N, D184W
# [36] = target: T36, PUM1 PUF domain R5-GQA C1007G + R1008Q + Q1011A (UniProt Q14671)
# T36 sequence: T1 sequence with A180G, A181Q, D184A
# [37] = target: T37, PUM1 PUF domain R5-GQS C1007G + R1008Q + Q1011S (UniProt Q14671)
# T37 sequence: T1 sequence with A180G, A181Q, D184S
# [38] = target: T38, PUM1 PUF domain R5-GQW C1007G + R1008Q + Q1011W (UniProt Q14671)
# T38 sequence: T1 sequence with A180G, A181Q, D184W
# [39] = target: T39, PUM1 PUF domain R5-GRA C1007G + Q1011A (Homo sapiens) (UniProt Q14671)
# T39 sequence: T1 sequence with A180G, A181R, D184A
sequence,measurement,setting,value
GGCUAGAACUAGUGGAUCCCCCGGCGCCCGGCGGCUCGAGCCCGGGUAAGUGUCAAUAGUCUGCAUGCCGCCGGGCGCCAUGCCUGCAGGUCGACUCUAGAAAACAUG,binding signal (log2 enrichment (interaction score)),[1],< -5.66
same,binding signal (log2 enrichment (interaction score)),[2],< -6.52
same,binding signal (log2 enrichment (interaction score)),[3],< -7.32
same,binding signal (log2 enrichment (interaction score)),[4],< -6.28
same,binding signal (log2 enrichment (interaction score)),[5],< -7.19
same,binding signal (log2 enrichment (interaction score)),[6],< -5.9
same,binding signal (log2 enrichment (interaction score)),[7],-1.22
same,binding signal (log2 enrichment (interaction score)),[8],< -6.79
same,binding signal (log2 enrichment (interaction score)),[9],< -8.11
same,binding signal (log2 enrichment (interaction score)),[10],0.49
same,binding signal (log2 enrichment (interaction score)),[11],< -7.62
same,binding signal (log2 enrichment (interaction score)),[12],< -7.13
same,binding signal (log2 enrichment (interaction score)),[13],-0.33
same,binding signal (log2 enrichment (interaction score)),[14],-1.06
same,binding signal (log2 enrichment (interaction score)),[15],-3.75
same,binding signal (log2 enrichment (interaction score)),[16],-8.25
same,binding signal (log2 enrichment (interaction score)),[17],-3.15
same,binding signal (log2 enrichment (interaction score)),[18],< -6.03
same,binding signal (log2 enrichment (interaction score)),[19],< -5.64
same,binding signal (log2 enrichment (interaction score)),[20],< -6.14
same,binding signal (log2 enrichment (interaction score)),[21],0.27
same,binding signal (log2 enrichment (interaction score)),[22],-1.43
same,binding signal (log2 enrichment (interaction score)),[23],-0.4
same,binding signal (log2 enrichment (interaction score)),[24],-3.77
same,binding signal (log2 enrichment (interaction score)),[25],0.35
same,binding signal (log2 enrichment (interaction score)),[26],-3.8
same,binding signal (log2 enrichment (interaction score)),[27],-4.54
same,binding signal (log2 enrichment (interaction score)),[28],< -5.58
same,binding signal (log2 enrichment (interaction score)),[29],-2.63
same,binding signal (log2 enrichment (interaction score)),[30],-4.3
same,binding signal (log2 enrichment (interaction score)),[31],-1.19
same,binding signal (log2 enrichment (interaction score)),[32],0.36
same,binding signal (log2 enrichment (interaction score)),[33],0.2
same,binding signal (log2 enrichment (interaction score)),[34],< -6.58
same,binding signal (log2 enrichment (interaction score)),[35],< -6.54
same,binding signal (log2 enrichment (interaction score)),[36],-3.16
same,binding signal (log2 enrichment (interaction score)),[37],-2.59
same,binding signal (log2 enrichment (interaction score)),[38],< -6.28
same,binding signal (log2 enrichment (interaction score)),[39],-1.55

# Looked up one by one from above (2):
sequence,measurement,setting,value
GGCUAGAACUAGUGGAUCCCCCGGCGCCCGGCGGCUCGAGCCCGGGUAAGUGUCAAUAGUCUGCAUGCCGCCGGGCGCCAUGCCUGCAGGUCGACUCUAGAAAACAUG,binding signal (log2 enrichment (interaction score)),[22],-1.43
same,binding signal (log2 enrichment (interaction score)),[24],-3.77
